Data from publication PMC11597879, “In Silico and In Vitro Investigation of Cytotoxicity and Apoptosis of Acridine/Sulfonamide Hybrids Targeting Topoisomerases I and II” (Pharmaceuticals, 2024).

How the values were obtained:
Assay type in all cases: cell-based, human
HepG2 cells = assay: MTT antiproliferative assay, HepG2; settings: IC50 THLE-2 / IC50 HePG2
HCT-116 cells = assay: MTT antiproliferative assay, HCT-116; settings: IC50 THLE-2 / IC50 HCT-116
MCF-7 cells = assay: MTT antiproliferative assay, MCF-7; settings: IC50 THLE-2 / IC50 MCF-7

| Structure (SMILES) | SI HePG2 (HepG2 cells) | SI HCT-116 (HCT-116 cells) | SI MCF-7 (MCF-7 cells) |
| --- | --- | --- | --- |
| CC(=O)Nc1ccc(S(=O)(=O)Nc2ccc(Cc3ccc(Nc4c5ccccc5nc5ccccc45)cc3)cc2)cc1 [Compound 7c] | > 3 and 3.35 | 2.56 | > 3 and 3.57 |
| Cc1ccc(S(=O)(=O)Nc2ccc(Nc3c4ccccc4nc4ccccc34)cc2)cc1 [Compound 8b] | > 3 and 3.82 | > 3 and 5.91 | – |

Where “and” joins values, the source holds several entries; their conditions need not be identical. Identical values can stand only once.
